Here are results for two substances from patent US9399016B2 (UCL BUSINESS PLC, priority 2006, dated 2016).

The nature of the data set: peptide made by a vendor (peptide synthesis; Fmoc-Gly preloaded NovaSyn TGT resin or Fmoc-Gly-2-Cl-Trt-resin; HBTU (in DMF) and DIPEA (in NMP)). Conditions: whole synthesis, reverse phase HPLC, scale of the general procedure 20 μmol.

As for (K)16RVRRGACYGLPHKFCG, the “final HPLC purity” value worked out at 96%.
Then (K)16GACYGLPHKFCG, with 85%.
